Experimental data as given in patent US20240141375A1, “LENTIVIRUS FOR GENERATING CELLS EXPRESSING ANTI-CD19 CHIMERIC ANTIGEN RECEPTOR” (Umoja Biopharma, Inc., priority 2021, published 2024).
At least one structure is not confirmed: it was looked up by name or label, or the drawing left a doubt.

System: B cells
Test: In vivo transduction by αCD19 CAR αCD3-Cocal lentivirus with or without rapamycin, anti-B cell activity
Parameters: species or system CD34 humanized NSG mice

SMILES: CO[C@H]1C[C@@H]2CC[C@@H](C)[C@@](O)(O2)C(=O)C(=O)N2CCCC[C@H]2C(=O)O[C@H]([C@H](C)C[C@@H]2CC[C@@H](O)[C@H](OC)C2)CC(=O)[C@H](C)/C=C(\C)[C@@H](O)[C@@H](OC)C(=O)[C@H](C)C[C@H](C)/C=C/C=C/C=C/1C [rapamycin]
- effect of rapamycin on the course of B cell depletion (1 mg/kg IP MWF from day 2): did not affect the course of B cell depletion
- CD71 expression in CD4 T cells (rapamycin 1 mg/kg IP, study days 10 and 14): lower CD71 expression
